Data from doi:10.1101/365460.
Results are given in words; binding and its absence hold for the method and conditions named. In cells and extracts the contact can be indirect. A yes stands for co-enrichment or nearness to the bait. Other partners may have been found. For some of these results: Where a sequence is shown, tags or fusion partners need not be part of it.

Amino acid sequences for entries named in this document (tags omitted).
UniProt Q9UI95: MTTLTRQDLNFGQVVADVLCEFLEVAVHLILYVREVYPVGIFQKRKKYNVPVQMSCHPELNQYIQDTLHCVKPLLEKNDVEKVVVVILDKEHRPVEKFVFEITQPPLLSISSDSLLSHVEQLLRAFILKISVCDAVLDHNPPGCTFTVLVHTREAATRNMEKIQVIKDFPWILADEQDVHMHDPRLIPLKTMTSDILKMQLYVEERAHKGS
UniProt Q7L5N1: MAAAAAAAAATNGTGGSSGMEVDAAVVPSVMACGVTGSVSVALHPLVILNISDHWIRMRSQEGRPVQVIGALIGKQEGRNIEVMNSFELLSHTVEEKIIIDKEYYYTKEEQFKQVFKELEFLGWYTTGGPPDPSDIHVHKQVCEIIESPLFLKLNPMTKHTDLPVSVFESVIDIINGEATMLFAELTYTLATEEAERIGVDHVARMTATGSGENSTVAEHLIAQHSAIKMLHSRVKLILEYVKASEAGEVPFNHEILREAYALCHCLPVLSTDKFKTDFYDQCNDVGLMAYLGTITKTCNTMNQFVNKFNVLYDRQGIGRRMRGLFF
UniProt Q13620: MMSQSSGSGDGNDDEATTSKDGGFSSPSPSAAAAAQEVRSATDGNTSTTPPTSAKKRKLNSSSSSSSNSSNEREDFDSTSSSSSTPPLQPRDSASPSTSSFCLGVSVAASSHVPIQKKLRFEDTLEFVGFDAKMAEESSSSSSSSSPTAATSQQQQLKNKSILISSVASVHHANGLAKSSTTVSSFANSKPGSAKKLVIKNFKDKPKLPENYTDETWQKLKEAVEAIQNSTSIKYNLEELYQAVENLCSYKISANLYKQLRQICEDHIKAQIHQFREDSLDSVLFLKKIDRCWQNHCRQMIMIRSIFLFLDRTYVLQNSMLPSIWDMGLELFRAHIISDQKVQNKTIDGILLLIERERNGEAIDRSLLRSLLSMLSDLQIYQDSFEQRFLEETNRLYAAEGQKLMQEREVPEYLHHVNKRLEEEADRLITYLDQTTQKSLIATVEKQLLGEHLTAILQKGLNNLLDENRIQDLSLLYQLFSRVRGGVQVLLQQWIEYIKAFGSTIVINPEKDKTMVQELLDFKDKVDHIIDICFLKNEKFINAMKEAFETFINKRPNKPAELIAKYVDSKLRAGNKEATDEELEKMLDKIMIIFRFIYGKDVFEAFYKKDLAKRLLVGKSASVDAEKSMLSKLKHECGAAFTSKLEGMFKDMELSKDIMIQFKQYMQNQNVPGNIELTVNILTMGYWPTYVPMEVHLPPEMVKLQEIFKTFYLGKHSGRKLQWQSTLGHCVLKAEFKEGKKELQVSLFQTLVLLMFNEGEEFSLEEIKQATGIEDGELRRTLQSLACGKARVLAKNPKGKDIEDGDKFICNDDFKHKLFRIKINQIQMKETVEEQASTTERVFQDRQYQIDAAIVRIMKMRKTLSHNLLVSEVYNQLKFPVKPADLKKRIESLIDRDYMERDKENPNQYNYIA
UniProt Q16531: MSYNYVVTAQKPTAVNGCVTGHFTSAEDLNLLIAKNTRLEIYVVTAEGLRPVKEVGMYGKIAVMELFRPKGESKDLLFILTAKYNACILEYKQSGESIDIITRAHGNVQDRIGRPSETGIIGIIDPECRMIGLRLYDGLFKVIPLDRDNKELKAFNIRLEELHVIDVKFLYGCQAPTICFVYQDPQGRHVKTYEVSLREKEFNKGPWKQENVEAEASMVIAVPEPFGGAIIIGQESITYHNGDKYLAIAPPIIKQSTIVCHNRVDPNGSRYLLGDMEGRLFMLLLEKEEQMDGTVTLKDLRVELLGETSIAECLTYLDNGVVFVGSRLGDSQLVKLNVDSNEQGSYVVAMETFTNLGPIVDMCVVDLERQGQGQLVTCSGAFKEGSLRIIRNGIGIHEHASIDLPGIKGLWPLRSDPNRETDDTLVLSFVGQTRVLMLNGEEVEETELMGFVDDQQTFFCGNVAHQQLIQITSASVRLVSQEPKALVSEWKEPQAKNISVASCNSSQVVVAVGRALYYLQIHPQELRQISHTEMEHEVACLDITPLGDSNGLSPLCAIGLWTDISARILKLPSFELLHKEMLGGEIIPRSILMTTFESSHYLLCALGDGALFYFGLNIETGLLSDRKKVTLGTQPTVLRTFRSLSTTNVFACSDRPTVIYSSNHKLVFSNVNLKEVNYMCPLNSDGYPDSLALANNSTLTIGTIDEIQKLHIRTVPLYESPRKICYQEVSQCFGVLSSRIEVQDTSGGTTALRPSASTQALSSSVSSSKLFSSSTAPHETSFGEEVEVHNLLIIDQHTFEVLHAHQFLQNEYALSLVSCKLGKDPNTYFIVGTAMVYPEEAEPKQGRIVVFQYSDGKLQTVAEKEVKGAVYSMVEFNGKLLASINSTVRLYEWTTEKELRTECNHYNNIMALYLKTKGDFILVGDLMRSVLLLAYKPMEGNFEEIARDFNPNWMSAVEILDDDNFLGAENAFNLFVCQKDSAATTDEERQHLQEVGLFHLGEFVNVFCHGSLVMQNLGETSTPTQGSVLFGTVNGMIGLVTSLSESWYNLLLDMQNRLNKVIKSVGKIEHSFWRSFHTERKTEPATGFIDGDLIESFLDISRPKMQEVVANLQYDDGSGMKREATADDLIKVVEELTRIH
UniProt Q14258: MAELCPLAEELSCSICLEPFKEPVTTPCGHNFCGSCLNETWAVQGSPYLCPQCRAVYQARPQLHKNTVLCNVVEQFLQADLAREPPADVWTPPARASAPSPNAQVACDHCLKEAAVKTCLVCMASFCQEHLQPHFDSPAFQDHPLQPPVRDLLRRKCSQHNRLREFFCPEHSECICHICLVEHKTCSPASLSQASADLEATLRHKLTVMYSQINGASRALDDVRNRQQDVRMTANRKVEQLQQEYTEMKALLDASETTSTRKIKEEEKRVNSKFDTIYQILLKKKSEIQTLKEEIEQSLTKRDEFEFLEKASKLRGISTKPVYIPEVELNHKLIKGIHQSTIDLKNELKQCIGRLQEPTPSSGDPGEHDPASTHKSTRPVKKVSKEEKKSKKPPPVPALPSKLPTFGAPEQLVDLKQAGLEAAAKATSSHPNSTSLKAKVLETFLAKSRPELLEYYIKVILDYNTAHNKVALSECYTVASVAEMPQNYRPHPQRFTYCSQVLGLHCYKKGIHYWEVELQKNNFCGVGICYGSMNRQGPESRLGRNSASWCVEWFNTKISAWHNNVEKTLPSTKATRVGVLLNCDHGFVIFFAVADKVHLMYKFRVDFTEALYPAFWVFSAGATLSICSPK

T1: FLAG-BirA*-FAM35A (human) (UniProt Q86V20)
T1 sequence: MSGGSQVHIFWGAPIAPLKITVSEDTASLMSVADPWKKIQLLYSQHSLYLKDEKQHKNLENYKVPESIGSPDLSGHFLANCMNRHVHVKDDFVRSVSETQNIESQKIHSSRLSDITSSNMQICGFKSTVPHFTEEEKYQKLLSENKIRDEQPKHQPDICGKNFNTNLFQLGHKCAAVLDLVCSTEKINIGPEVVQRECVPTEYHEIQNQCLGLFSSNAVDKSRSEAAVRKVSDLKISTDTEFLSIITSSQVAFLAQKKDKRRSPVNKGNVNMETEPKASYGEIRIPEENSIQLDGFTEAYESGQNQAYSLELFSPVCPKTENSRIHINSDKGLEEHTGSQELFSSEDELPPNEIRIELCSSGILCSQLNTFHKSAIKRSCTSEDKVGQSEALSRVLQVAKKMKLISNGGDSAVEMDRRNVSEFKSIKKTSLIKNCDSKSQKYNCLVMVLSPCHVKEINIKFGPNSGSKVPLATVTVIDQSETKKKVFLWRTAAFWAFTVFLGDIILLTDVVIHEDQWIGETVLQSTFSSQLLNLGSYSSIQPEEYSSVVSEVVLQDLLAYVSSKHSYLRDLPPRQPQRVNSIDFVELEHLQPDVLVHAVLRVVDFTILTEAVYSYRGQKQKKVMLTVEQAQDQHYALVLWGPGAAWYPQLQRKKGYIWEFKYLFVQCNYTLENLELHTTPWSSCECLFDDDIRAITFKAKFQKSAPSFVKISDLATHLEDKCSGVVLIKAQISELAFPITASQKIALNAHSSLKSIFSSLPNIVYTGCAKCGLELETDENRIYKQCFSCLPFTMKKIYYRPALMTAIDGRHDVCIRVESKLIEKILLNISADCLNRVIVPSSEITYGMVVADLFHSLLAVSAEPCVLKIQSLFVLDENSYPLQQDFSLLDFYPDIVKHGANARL


Columns and labels:
[1] = target: T1, FLAG-BirA*-FAM35A (human); experiment: proximity labelling
FLAG-BirA*-REV7 (human) = FLAG-BirA*-REV7 (human) (UniProt Q9UI95); experiment: proximity labelling
Flag-REV7 (human) = Flag-REV7 (human) (UniProt Q9UI95); experiment: affinity purification with mass spectrometry

Row | Molecule | binding [1] | binding (FLAG-BirA*-REV7 (human)) | binding (Flag-REV7 (human))
1 | COPS4 (from UniProt Q9BT78 1-406) | binds | – | –
2 | COPS6 (from UniProt Q7L5N1 1-327) | binds | – | –
3 | CUL4B (from UniProt Q13620 1-913) | binds | – | –
4 | DDB1 (from UniProt Q16531 1-1140) | binds | – | –
5 | E3 Ubiquitin ligase TRIM25 (from UniProt Q14258 1-630) | binds | – | –
6 | REV7 (from UniProt Q9UI95 1-211) | binds | – | –
7 | FAM35A (protein, UniProt Q86V20-2 1-904) MSGGSQVHIFWGAPIAPLKITVSEDTASLMSVADPWKKIQLLYSQHSLYLKDEKQHKNLENYKVPESIGSPDLSGHFLANCMNRHVHVKDDFVRSVSETQNIESQKIHSSRLSDITSSNMQICGFKSTVPHFTEEEKYQKLLSENKIRDEQPKHQPDICGKNFNTNLFQLGHKCAAVLDLVCSTEKINIGPEVVQRECVPTEYHEIQNQCLGLFSSNAVDKSRSEAAVRKVSDLKISTDTEFLSIITSSQVAFLAQKKDKRRSPVNKGNVNMETEPKASYGEIRIPEENSIQLDGFTEAYESGQNQAYSLELFSPVCPKTENSRIHINSDKGLEEHTGSQELFSSEDELPPNEIRIELCSSGILCSQLNTFHKSAIKRSCTSEDKVGQSEALSRVLQVAKKMKLISNGGDSAVEMDRRNVSEFKSIKKTSLIKNCDSKSQKYNCLVMVLSPCHVKEINIKFGPNSGSKVPLATVTVIDQSETKKKVFLWRTAAFWAFTVFLGDIILLTDVVIHEDQWIGETVLQSTFSSQLLNLGSYSSIQPEEYSSVVSEVVLQDLLAYVSSKHSYLRDLPPRQPQRVNSIDFVELEHLQPDVLVHAVLRVVDFTILTEAVYSYRGQKQKKVMLTVEQAQDQHYALVLWGPGAAWYPQLQRKKGYIWEFKYLFVQCNYTLENLELHTTPWSSCECLFDDDIRAITFKAKFQKSAPSFVKISDLATHLEDKCSGVVLIKAQISELAFPITASQKIALNAHSSLKSIFSSLPNIVYTGCAKCGLELETDENRIYKQCFSCLPFTMKKIYYRPALMTAIDGRHDVCIRVESKLIEKILLNISADCLNRVIVPSSEITYGMVVADLFHSLLAVSAEPCVLKIQSLFVLDENSYPLQQDFSLLDFYPDIVKHGANARL | – | binds | binds
8 | chromosome alignment-maintaining phosphoprotein (CHAMP1) (protein, UniProt Q96JM3 1-812) MEAFQELRKPSARLECDHCSFRGTDYENVQIHMGTIHPEFCDEMDAGGLGKMIFYQKSAKLFHCHKCFFTSKMYSNVYYHITSKHASPDKWNDKPKNQLNKETDPVKSPPLPEHQKIPCNSAEPKSIPALSMETQKLGSVLSPESPKPTPLTPLEPQKPGSVVSPELQTPLPSPEPSKPASVSSPEPPKSVPVCESQKLAPVPSPEPQKPAPVSPESVKATLSNPKPQKQSHFPETLGPPSASSPESPVLAASPEPWGPSPAASPESRKSARTTSPEPRKPSPSESPEPWKPFPAVSPEPRRPAPAVSPGSWKPGPPGSPRPWKSNPSASSGPWKPAKPAPSVSPGPWKPIPSVSPGPWKPTPSVSSASWKSSSVSPSSWKSPPASPESWKSGPPELRKTAPTLSPEHWKAVPPVSPELRKPGPPLSPEIRSPAGSPELRKPSGSPDLWKLSPDQRKTSPASLDFPESQKSSRGGSPDLWKSSFFIEPQKPVFPETRKPGPSGPSESPKAASDIWKPVLSIDTEPRKPALFPEPAKTAPPASPEARKRALFPEPRKHALFPELPKSALFSESQKAVELGDELQIDAIDDQKCDILVQEELLASPKKLLEDTLFPSSKKLKKDNQESSDAELSSSEYIKTDLDAMDIKGQESSSDQEQVDVESIDFSKENKMDMTSPEQSRNVLQFTEEKEAFISEEEIAKYMKRGKGKYYCKICCCRAMKKGAVLHHLVNKHNVHSPYKCTICGKAFLLESLLKNHVAAHGQSLLKCPRCNFESNFPRGFKKHLTHCQSRHNEEANKKLMEALEPPLEEQQI | – | binds | binds
